In US20180230213A1:
No constants are given. Whether binding was seen depends on the method and setting. Some results given as binding are weak or reduced against the parent protein; the word gives no strength.

The chains behind the UniProt entries cited, without tags or fusion partners. Residues count along the entry.
UniProt Q9UM47, residues 40-467: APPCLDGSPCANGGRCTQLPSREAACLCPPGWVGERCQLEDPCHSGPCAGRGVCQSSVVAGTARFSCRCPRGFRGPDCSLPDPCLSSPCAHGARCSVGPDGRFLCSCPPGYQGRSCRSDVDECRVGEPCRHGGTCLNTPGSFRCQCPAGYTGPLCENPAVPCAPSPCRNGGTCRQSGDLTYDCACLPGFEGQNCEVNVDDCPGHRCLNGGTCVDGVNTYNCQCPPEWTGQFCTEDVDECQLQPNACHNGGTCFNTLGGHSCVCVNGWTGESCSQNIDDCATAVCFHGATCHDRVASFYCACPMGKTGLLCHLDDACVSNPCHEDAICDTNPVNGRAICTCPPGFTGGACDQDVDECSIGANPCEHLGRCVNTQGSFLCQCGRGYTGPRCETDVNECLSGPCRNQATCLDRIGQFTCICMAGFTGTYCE
UniProt O00548, residues 22-540: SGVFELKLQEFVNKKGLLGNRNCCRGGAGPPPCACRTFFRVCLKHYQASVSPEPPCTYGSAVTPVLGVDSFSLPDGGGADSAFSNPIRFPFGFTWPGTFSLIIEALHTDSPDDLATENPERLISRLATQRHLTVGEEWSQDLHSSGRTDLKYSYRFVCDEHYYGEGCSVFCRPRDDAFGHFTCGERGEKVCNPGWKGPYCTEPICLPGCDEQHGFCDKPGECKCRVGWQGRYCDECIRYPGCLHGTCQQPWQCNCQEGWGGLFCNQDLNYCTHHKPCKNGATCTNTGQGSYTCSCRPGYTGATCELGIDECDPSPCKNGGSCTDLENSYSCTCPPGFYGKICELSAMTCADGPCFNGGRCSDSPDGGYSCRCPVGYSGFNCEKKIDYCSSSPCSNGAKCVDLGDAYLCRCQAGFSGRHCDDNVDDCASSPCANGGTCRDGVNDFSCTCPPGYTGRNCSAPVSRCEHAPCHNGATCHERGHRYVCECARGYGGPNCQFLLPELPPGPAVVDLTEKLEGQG

Biological target: recombinant human Notch3 extracellular domain (containing EGF like domains 1-11) Fc fusion protein (human) (UniProt Q9UM47)
Experiment: BLI (Octet QK): rhNotch3 on the sensor, IgG in place of a Notch3 antibody, then the ligand in solution

binding: binds
Substance: rhDLL1-Fc (from UniProt O00548 22-540) (Fc fusion)
